In PMC10577563:
Results are given in words; binding and its absence hold for the method and conditions named. In cells and extracts the contact can be indirect. Some results given as binding are weak or reduced against the parent protein; the word gives no strength. For part of these data: Tags and fused reporters may be left off the sequences shown. One block for each binder: values may come before it.

The chains behind the UniProt entries cited, without tags or fusion partners.
UniProt P30086: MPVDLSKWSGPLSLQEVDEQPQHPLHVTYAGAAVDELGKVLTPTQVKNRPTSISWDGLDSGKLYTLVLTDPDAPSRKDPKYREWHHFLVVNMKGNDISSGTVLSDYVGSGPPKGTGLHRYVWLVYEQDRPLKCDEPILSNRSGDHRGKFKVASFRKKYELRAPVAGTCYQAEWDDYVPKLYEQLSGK

What was measured:
[1] = biological target: T1, phosphatidylethanolamine-binding protein-1 (PEBP1), endogenous in mouse midbrain (mouse (endogenous in midbrain)) (UniProt P70296); assay: co-IP; midbrain of A53T mice, untreated or stressed, with or without Fer-1; A53T-AAV mice after stress or leonurine; which protein was precipitated is not told
T1 sequence: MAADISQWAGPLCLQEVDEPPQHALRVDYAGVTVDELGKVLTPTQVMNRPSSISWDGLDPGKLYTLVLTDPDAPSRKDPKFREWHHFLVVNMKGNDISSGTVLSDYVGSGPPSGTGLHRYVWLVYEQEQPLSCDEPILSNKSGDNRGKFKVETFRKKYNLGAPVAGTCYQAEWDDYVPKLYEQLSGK

[2] = biological target: T2, phosphatidylethanolamine-binding protein-1 (PEBP1), endogenous in PC12 cells (rat (endogenous in PC12)) (UniProt P31044); assay: co-IP; PC12 cells overexpressing ALOX15-EGFP, untreated or after CORT treatment (200 μM) for 24 h; which protein was precipitated is not told
T2 sequence: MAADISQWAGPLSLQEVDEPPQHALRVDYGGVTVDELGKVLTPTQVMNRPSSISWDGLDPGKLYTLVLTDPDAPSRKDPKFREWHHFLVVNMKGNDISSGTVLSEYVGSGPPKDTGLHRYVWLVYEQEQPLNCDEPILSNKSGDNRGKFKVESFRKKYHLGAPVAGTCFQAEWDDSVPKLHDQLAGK

[3] = biological target: PEBP1-HA (phosphatidylethanolamine-binding protein-1), overexpressed in HEK-293 cells (UniProt P30086); assay: co-IP; HEK-293 cells overexpressing ALOX15-EGFP and PEBP1-HA; CORT 200 μM, leonurine 50 μM

binding [1]: binds
B1: 15-lipoxygenase-1 (ALOX15), endogenous in mouse midbrain (enzyme, UniProt P39654 1-663)
chain: MGVYRIRVSTGDSVYAGSNNEVYLWLIGQHGEASLGKLFRPCRNSEAEFKVDVSEYLGPLLFVRVQKWHYLKEDAWFCNWISVKGPGDQGSEYTFPCYRWVQGTSILNLPEGTGCTVVEDSQGLFRNHREEELEERRSLYRWGNWKDGTILNVAATSISDLPVDQRFREDKRLEFEASQVLGTMDTVINFPKNTVTCWKSLDDFNYVFKSGHTKMAERVRNSWKEDAFFGYQFLNGANPMVLKRSTCLPARLVFPPGMEKLQAQLDEELKKGTLFEADFFLLDGIKANVILCSQQYLAAPLVMLKLQPDGQLLPIAIQLELPKTGSTPPPIFTPLDPPMDWLLAKCWVRSSDLQLHELQAHLLRGHLVAEVFAVATMRCLPSVHPVFKLLVPHLLYTMEINVRARSDLISERGFFDKVMSTGGGGHLDLLKQAGAFLTYSSLCPPDDLAERGLLDIDTCFYAKDALQLWQVMNRYVVGMFDLYYKTDQAVQDDYELQSWCQEITEIGLQGAQDRGFPTSLQSRAQACHFITMCIFTCTAQHSSIHLGQLDWFYWVPNAPCTMRLPPPKTKDATMEKLMATLPNPNQSTLQINVVWLLGRRQAVMVPLGQHSEEHFPNPEAKAVLKKFREELAALDKEIEIRNKSLDIPYEYLRPSLVENSVAI

binding [2]: binds
B2: ALOX15-EGFP (15-lipoxygenase-1), overexpressed in PC12 cells (enzyme, UniProt P16050 1-662)
chain: MGLYRIRVSTGASLYAGSNNQVQLWLVGQHGEAALGKRLWPARGKETELKVEVPEYLGPLLFVKLRKRHLLKDDAWFCNWISVQGPGAGDEVRFPCYRWVEGNGVLSLPEGTGRTVGEDPQGLFQKHREEELEERRKLYRWGNWKDGLILNMAGAKLYDLPVDERFLEDKRVDFEVSLAKGLADLAIKDSLNVLTCWKDLDDFNRIFWCGQSKLAERVRDSWKEDALFGYQFLNGANPVVLRRSAHLPARLVFPPGMEELQAQLEKELEGGTLFEADFSLLDGIKANVILCSQQHLAAPLVMLKLQPDGKLLPMVIQLQLPRTGSPPPPLFLPTDPPMAWLLAKCWVRSSDFQLHELQSHLLRGHLMAEVIVVATMRCLPSIHPIFKLIIPHLRYTLEINVRARTGLVSDMGIFDQIMSTGGGGHVQLLKQAGAFLTYSSFCPPDDLADRGLLGVKSSFYAQDALRLWEIIYRYVEGIVSLHYKTDVAVKDDPELQTWCREITEIGLQGAQDRGFPVSLQARDQVCHFVTMCIFTCTGQHASVHLGQLDWYSWVPNAPCTMRLPPPTTKDATLETVMATLPNFHQASLQMSITWQLGRRQPVMVAVGQHEEEYFSGPEPKAVLKKFREELAALDKEIEIRNAKLDMPYEYLRPSVVENSVAI

binding [3]: binds
B3: ALOX15-EGFP (15-lipoxygenase-1), overexpressed in HEK-293 cells (enzyme, UniProt P16050 1-662)
chain: B2 chain
